Some entries repeat one wording, which the source may state once for all of them.
Experiment: Sensory evaluation of salty taste-enhancing action in salt aqueous solution (Example 1)
Conditions: 0.150 wt % evaluation sample and 0.700 wt % sodium chloride in distilled water
Method: The salty taste-enhancing action may be evaluated by a sensory test.
Each evaluation sample and sodium chloride (salt) were dissolved in distilled water to prepare an aqueous solution containing 0.150 wt % of the evaluation sample and 0.700 wt % of sodium chloride, which was used as an evaluation solution. In addition, solutions containing 0.700 wt %, 0.735 wt %, 0.770 wt %, 0.805 wt %, and 0.840% of sodium chloride were used as comparative objects.

| Structure (SMILES) | Foreign taste and foreign odor |
| --- | --- |
| Cl.N=C(N)N [Guanidine hydrochloride] | Almost no foreign taste and foreign odor were sensed. |
| N=C(N)NCCCO [Example 14] | A bitter taste was sensed. |
| N=C(N)NCCC(=O)O [β-Guanidinopropanoic acid] | Almost no foreign taste and foreign odor were sensed. |
| N=C(N)NCCCCCC(=O)O [6-Guanidinocaproic acid] | Almost no foreign taste and foreign odor were sensed. |

— patent US12122736B2, “Salty taste-enhancing agent and manufacturing method therefor, and salty taste-enhancing method” (NISSIN FOODS HOLDINGS CO., LTD., priority 2012, dated 2024)
